According to paper PMC3835791, “Non-Invasive Imaging of Tumors by Monitoring Autotaxin Activity Using an Enzyme-Activated Near-Infrared Fluorogenic Substrate” (PLoS ONE, 2013):

Tested on: MDA-MB-231 orthotopic tumor (ATX activity)
Test: In vivo NIRF imaging and ex vivo tissue analysis of mice with orthotopic tumors
Settings: AR-2 i.v. 0.5 mg/kg, imaged 48 h after injection
Excerpt: Animal studies were approved by the Institutional Animal Care and Use Committee (IACUC) of the University of Utah (protocol numbers 10-10016 and 12-05013). Tumors in mice were established as previously described, [41]. Briefly, approximately ten-week old female nude (Nu/Nu) mice (Charles River Laboratories International, Wilmington, MA) were lightly anesthetized with isoflurane and subcutaneously inoculated with MDA-MB-231 cells in the left thoracic mammary glands. Prior to inoculation, cells were suspended in Extracel to make 5×10^7 cells/mL and each mouse received 0.1 mL of Extracel tumor suspension. To reduce auto-fluorescence arising from the feed, mice were switched to specially formulated diet (2920X, Harlan Laboratories, WI) at least two days prior to imaging.
Six weeks after tumor graft, mice were imaged using AR-2. […] The fluorescence signals from acquired images were analyzed using Pearl Impulse Software v 2.0 (LI-COR Biosciences) according the manufacturer's protocols. […]
Animals were sacrificed, organs were dissected and weighed, then ex vivo fluorescence was imaged and quantified as previously described. […] ATX levels were determined by diluting supernatants ten times in RD5-10 and assayed using a Human ENPP-2/Autotaxin ELISA (R&D Systems, Minneapolis, MN) and an Autotaxin Sandwich ELISA (Echelon Biosciences, Inc., Salt Lake City, UT) using the manufacturers' protocol. […]

## CC1(C)C(/C=C/C2=C(Oc3ccc(S(=O)(=O)O)cc3)C(=C/C=C3/N(CCCCS(=O)(=O)O)c4ccc(S(=O)(=O)[O-])cc4C3(C)C)/CCC2)=[N+](CCCCCC(=O)NCCCCCC(=O)OC[C@@H](O)COP(=O)(O)OCCNC(=O)CCOCCOCCOCCOCCNC(=O)CCCCCN2/C(=C/C=C3\CCCC(/C=C/C4=[N+](CCCS(=O)(=O)O)c5ccc(N(CCCS(=O)(=O)O)CCCS(=O)(=O)O)cc5C4(C)C)=C3Cl)C(C)(C)c3c2ccc2cc(S(=O)(=O)[O-])ccc32)c2ccc(S(=O)(=O)O)cc21 [AR-2]
  NIRF signals in whole bodies of live tumor-bearing animals: tumor-specific and elevated compared to the rest of the body
